Primary screen of a compound library

Sequences of proteins named here, by UniProt entry; tags and fusion partners are left off. Residues count along the entry.
UniProt A4I591, 1-473: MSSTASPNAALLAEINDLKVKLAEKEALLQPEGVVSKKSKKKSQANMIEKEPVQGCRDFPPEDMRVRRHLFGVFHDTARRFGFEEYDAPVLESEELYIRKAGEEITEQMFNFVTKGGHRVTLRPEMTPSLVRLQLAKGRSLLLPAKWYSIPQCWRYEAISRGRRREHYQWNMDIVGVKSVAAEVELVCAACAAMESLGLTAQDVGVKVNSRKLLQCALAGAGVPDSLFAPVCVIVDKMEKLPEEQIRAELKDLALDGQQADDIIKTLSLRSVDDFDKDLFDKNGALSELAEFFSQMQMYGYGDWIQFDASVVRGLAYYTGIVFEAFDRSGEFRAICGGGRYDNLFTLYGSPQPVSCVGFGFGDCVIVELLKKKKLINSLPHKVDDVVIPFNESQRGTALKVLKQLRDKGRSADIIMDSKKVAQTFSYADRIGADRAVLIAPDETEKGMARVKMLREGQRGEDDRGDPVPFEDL

Data taken from ChEMBL document CHEMBL3988442, “University of Dundee, Small-Polar-MMV Screening Library” (2021).

Each number is a percent effect as filed.
The record does not define 0% and 100%; most values in the screen are far below 50% and negative numbers occur (in some assays of this library far below -100).
Compounds were drawn at random from those tested, without regard to their results.

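Enzyme assay of histidyl-tRNA synthetase; the read-out is not stated. Target: Histidine-tRNA ligase, Leishmania infantum (UniProt A4I591). Concentration: 30 µM. Direction is inferred from retests: higher values go with stronger inhibition. The assay is labelled LdHisRS but filed under L. infantum. Size under these conditions: about 69,000 compounds, about 410 of them at 50% or above in at least one test.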

| compound | Percent Effect |
|---|---|
| `O=C(Cn1ccc(-c2ccccc2)n1)N1CCN(C(=O)C2CC2)CC1` | 17.33 |
| `CC(NCCCc1cnn(C)c1)c1ccc(Br)s1` (stereo unspecified) | -3.509 |
| `O=C(C1CCCO1)N1CCCn2c(nnc2Cn2cccn2)C1` (stereo unspecified) | 8.621 |
| `Cc1cccc(C(=O)N2C[C@@H]3CCN(c4cccnc4)C[C@@H]3C2)c1` | 6.569 |
| `O=C(Cn1ccc(=O)[nH]c1=O)NCc1cccnc1OCC(F)(F)F` | 6.667 |
| `CO[C@H]1C[C@@H]2CN(C(=O)c3cc4ccc(F)cc4[nH]3)C[C@@H]2C1` | 13.04 |
| `Cc1cc(N)nc(SC2CCN(c3ccccc3)C2=O)n1` (stereo unspecified) | 14.71 |
| `CC(C)CC(NC(=O)c1ccn(C)c(=O)c1)c1ccccc1` (stereo unspecified) | 15.04 |
| `O=S1(=O)NC(c2ccnc(N3CCOCC3)n2)=Nc2ccccc21` | 11.43 |
| `CC(C)(N)CNS(=O)(=O)Cc1cccc2cccnc12` | -1.786 |
| `Cc1nc(C2CCCN2CC(=O)N2CCCc3ccccc32)no1` (stereo unspecified) | 31.2 |
| `CC(=O)N(C)CCc1nc(-c2cc(C(N)=O)co2)cs1` | 22.22 |
| `COc1cccc(-c2n[nH]c3c2CN(C(=O)c2cccc(=O)[nH]2)CC3)c1` | 65.62 |
| `c1ccc(OCC2C[C@@H]3[C@@H](C2)OCCN3CC2CCOCC2)nc1` (stereo partly specified) | 3.774 |
| `Cc1nnc2n1CCN(C(=O)c1cn(-c3ccccc3)nn1)C2` | 9.574 |
| `CCc1c(C(=O)NCC(=O)OCC2CC2)cnn1-c1ccc(C)cc1` | -10.11 |
| `CC(=O)NCC(=O)NC1CCc2nccn2C1` (stereo unspecified) | 18.75 |
| `O=C(NCC1CCOC1)N1CCN(c2ncccn2)CC1` (stereo unspecified) | 17.95 |
| `CCN(Cc1ccccn1)C1CCN(c2ccccc2)C1=O` (stereo unspecified) | 9.326 |
| `O=C(O)c1cccc(CN2CCCC(Cc3ccn[nH]3)C2)c1` (stereo unspecified) | 11.51 |
| `O=C1[C@@H]2C[C@H](O)CCN2C(=O)CN1CCSc1ccccn1` | 17.65 |
| `COc1ccccc1C(C)NC(=O)N1CCC(n2cncn2)CC1` (stereo unspecified) | 0 |
| `O=C1CC(c2ccc3c(c2)OCO3)c2snc(C(=O)O)c2N1` (stereo unspecified) | 3.448 |
| `O=C(NCC1CC1)c1nc(COc2ccc3c(c2)OCO3)no1` | 7.767 |
| `Cc1cc(N[C@H]2CCCC[C@@H]2O)n2nccc2n1` | 20 |
| `CN(C)CCN(C)C(=O)NC1CCC(Oc2ccccc2C#N)CC1` (stereo unspecified) | 17.14 |
| `CC(O)Cc1cn(CC2CCN(c3nccc4occc34)CC2)nn1` (stereo unspecified) | 8.901 |
| `Cc1noc(C)c1-c1cccc(CC2CCN(C(=O)c3cscn3)C2)n1` (stereo unspecified) | 16.49 |
| `NC(=O)C1CCCN(c2ccc(CNC(=O)c3cnsn3)cc2)C1` (stereo unspecified) | 13.04 |
| `O=S(=O)(C1CC1)N1CCO[C@H]2[C@@H](Oc3ncccc3F)CC[C@@H]21` | 16.44 |
| `O=C1[C@H]2CN(C3CCOCC3)C[C@H]2CN1Cc1cccnc1` | 3.947 |
| `Cc1cnc(CN(C)CC2CCCN2c2cccnn2)cn1` (stereo unspecified) | 10.67 |
| `CCN(CC)Cc1ccccc1NC(=O)N(C)Cc1ccccc1O` | 14.52 |
| `CNS(=O)(=O)c1cccc(C(=O)N(C)Cc2ccsc2)c1` | 13.46 |
| `CN(C)S(=O)(=O)N1CCC2(CC1)CC(OCC1CC1)CO2` (stereo unspecified) | 0 |
| `CNC(=O)c1cn2cc(-c3cccc(Cl)c3)n(CC=C(C)C)c(=O)c2n1` | 17.78 |
| `COCCNC(=O)c1nc2c(s1)CCCN2Cc1ccccc1` | 33.33 |
| `Cc1cccc(C2CC(=O)Nc3c2c(=O)[nH]n3C(C)C)c1` (stereo unspecified) | 0 |
| `Cc1nc(CN2CC(CO)Oc3ccccc32)sc1C` (stereo unspecified) | 3.448 |
| `CCCn1ccnc1CN1CCCC(O)(CN(C)C)CC1` (stereo unspecified) | 13.92 |
| `Cn1nc(CNC(=O)c2nc3ccccc3s2)c2c1CCOC2` | 16.5 |
| `CS(=O)(=O)NCc1cc2n(n1)CCCN(Cc1cccc(C#N)c1)C2` | 26.67 |
| `COc1ccc(C(O)CNc2c(C#N)c(=O)n(C)c(=O)n2C)cc1` (stereo unspecified) | -7.865 |
| `Cn1ccc(C(=O)NCc2ccc(CN3CCCC3)cc2)cc1=O` | 11.54 |
| `Fc1cnc(N2CCC3(CCCN(c4nncs4)C3)C2)nc1` (stereo unspecified) | 0 |
| `CC(=O)N1N=C(c2ccco2)OC1C(=O)NCCc1ccc(O)cc1` (stereo unspecified) | -13.86 |
| `CCS(=O)(=O)NCc1cc(Br)c(OC)c(OC)c1` | 3.306 |
| `Cc1occc1C(=O)NCC(=O)NCCOc1cccc(Cl)c1` | 21.88 |
| `CN(C)C(=O)c1ccc(CNc2c(Cl)cccc2C#N)cc1` | 10.26 |
| `Cc1cccc(C(C(=O)NCC2(O)CCCCC2)N(C)C)c1` (stereo unspecified) | 26.67 |
| `Cc1nn(C)c(C)c1C1CCCN1CC(=O)Nc1nccs1` (stereo unspecified) | 7.895 |
| `CC(SCCC(=O)NC(N)=O)c1c(F)cccc1F` (stereo unspecified) | 12.61 |
| `COc1ccc(-n2nc(C(C)C)nc2COC(C)C)cc1` | 13.11 |
| `Brc1ccc(CNCc2nnc3n2CCCCC3)s1` | 20 |
| `Cc1cc(C(F)(F)F)nc(CCNc2nc(C)nc3c2cnn3C)n1` | 4.918 |
| `Cn1cc(C2CCCN2C(=O)Cc2coc(-c3ccccc3)n2)cn1` (stereo unspecified) | 16.13 |
| `O=C(Nc1cnn(COc2ccc(F)cc2Cl)c1)C1CC1` | 21.24 |
| `CNC(=O)[C@@]12CCO[C@@H]1CCN(Cc1ccc3c(c1)OCO3)C2` | 15.09 |
| `CC(=O)c1cccc(NC(=O)Cn2nc(-c3cccs3)oc2=O)c1` | 13.39 |
| `CCCC(C)(C)NC(=O)c1ccc(CC2CC(=O)NC2=O)cc1` (stereo unspecified) | 7.692 |
| `O=C(Nc1nccs1)c1csc(NC2CCCC2)n1` | 66.29 |
| `COc1ccccc1CCNC(=O)CNCC1CN(C)CCO1` (stereo unspecified) | 8.29 |
| `Cc1nn(C)cc1NC(=O)CC1CCN(C(=O)Cc2ccccc2)CC1` | 4.255 |
| `Cc1cc(NC(=O)CCn2nc(C)c3ccccc32)n(C(C)C)n1` | 18.52 |
| `NCc1cc(-c2ccccc2)n2nccc2n1` | 22.86 |
| `CCn1cnnc1CNC(=O)C1CCCN(Cc2cccc(F)c2)C1` (stereo unspecified) | 15.18 |
| `CCOCc1nccc(-c2ccc(OCC)c(C(=O)O)c2)n1` | 2.778 |
| `CC(C)c1ccc(C(CN)N2CCc3sccc3C2)cc1` (stereo unspecified) | 17.81 |
| `O=C(c1ccnc(NC2CC2)c1)N1CCCC1c1cccc(Br)c1` (stereo unspecified) | 26.51 |
| `O=C(Nc1ccc(F)cc1)N1C[C@H]2C[C@H](C(=O)N3CCCC3)[C@@H](C1)O2` | 9.615 |
| `CNC(=O)CCc1cc(C2CCCN2S(C)(=O)=O)nc(C)n1` (stereo unspecified) | 13.42 |
| `CC(=O)NCC1CCN(C(=O)CCOc2ccc(C(C)C)cc2)CC1` | 26.79 |
| `O=C(O)CCCC(=O)N1CCC(c2noc3cc(F)ccc23)CC1` | 17.39 |
| `Cc1ccc(OCCNc2cccc(C(=O)N3CCOCC3)c2)cc1` | 24.71 |
| `Cc1cc(C)n(C2CN(CC(O)c3ccc4c(c3)OCO4)C2)n1` (stereo unspecified) | 35.62 |
| `CCN(CC)CC1CN(Cc2c(C)noc2C)Cc2nccn2C1` (stereo unspecified) | 21.62 |
| `Cc1noc(C)c1C(=O)N1C[C@H]2CC[C@@H]1CN(c1cnccn1)C2` | 15.71 |

4 of the entries, repeated:

compound,Percent Effect
O=C(Cn1ccc(=O)[nH]c1=O)NCc1cccnc1OCC(F)(F)F,6.667
COc1ccccc1CCNC(=O)CNCC1CN(C)CCO1 (stereo unspecified),8.29
Cc1cnc(CN(C)CC2CCCN2c2cccnn2)cn1 (stereo unspecified),10.67
COc1ccc(C(O)CNc2c(C#N)c(=O)n(C)c(=O)n2C)cc1 (stereo unspecified),-7.865